This is an account of results in publication PMC4583457.

Assay [1] deals with T1, myelin protein zero (P0), endogenous in adult mouse sciatic nerve (mouse (endogenous in sciatic nerve)) (UniProt P27573).
T1 sequence: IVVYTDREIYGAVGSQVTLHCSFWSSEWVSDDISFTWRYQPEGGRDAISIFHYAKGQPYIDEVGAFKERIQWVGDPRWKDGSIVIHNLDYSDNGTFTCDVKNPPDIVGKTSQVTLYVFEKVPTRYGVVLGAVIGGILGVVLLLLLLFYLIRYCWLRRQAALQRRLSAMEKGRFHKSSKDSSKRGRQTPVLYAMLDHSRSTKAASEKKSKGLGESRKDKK
In words: co-IP; as a2, but from sciatic nerve lysates of HDAC1/2 dKO mice at 8 wk post-tamoxifen (P0 levels reduced).

Assay [2] concerns the target T1, myelin protein zero (P0), endogenous in adult mouse sciatic nerve (mouse (endogenous in sciatic nerve)). Nature of the assay: co-IP; IP with 2 ug chicken anti-P0 antibody on PrecipHen beads from adult control littermate mouse sciatic nerve lysates (8 wk post-tamoxifen); blot with pan-NFasc antibody; chicken IgY as negative control.

These are yes or no findings as the source states them, for the method shown. Binding seen in cells or lysates may run through a third protein. Binding can be weak; no strength is given.

Regarding “NFasc155, endogenous in adult mouse sciatic nerve”, the binding result in assay [1] is on record as “binds weakly”; in assay [2] it was “binds”.
